Test results taken from PubChem BioAssay AID1487 (National Center for Advancing Translational Sciences (NCATS), 2009).
Several values for one entry are separate records, joined by “and”; a condition that tells them apart may be missing. Equal entries are not always repeated. The list shows a part of the results. The main result of the screen is listed elsewhere. These columns were measured beside it and carry no call. The list favours compounds with an active or inconclusive main result. The note in brackets gives the kind of curve behind each potency; many fits are weak.

Experiment: qHTS Assay for Modulators of Lamin A Splicing
Conditions: HeLa LMNA splicing GFP/RFP minigene ratio, 48 h
Summary of the method: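 Read-out is the ratio of GFP to DsRed2 object intensity, acquired by 488 nm laser-scanning cytometry on HeLa lamin A-EGFP minigene reporter cells. Compound incubation 48 hrs at 37 °C in Opti-MEM with 2% FBS; DMSO 0.5% final.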

[1] = measured here: RFP viability control channel
[2] = measured here: GFP splicing reporter channel

For `CCc1ccc(CNC(=O)C(=O)NCC2CCCO2)cc1` (centres undefined), the AC50 [1] was 0.0708 µM [falling, full curve, poor fit].

With `CC/C(=N\NC(=S)Nc1ccc(OC)cc1)c1ccc(OC(F)F)cc1` the AC50 [2] was 31.6 µM [rising, single point] and the AC50 [1] was 35.5 µM [rising, single point].

In the case of `C=CCn1c(SCC(=O)NCC)nnc1-c1cc2c(s1)CCC(CC)C2` (centres undefined), the AC50 [2] is reported as 15.8 µM [rising, single point] and the AC50 [1] is reported as 25.1 µM [rising, single point].

In the case of `CC1=CC(C)(C)Nc2ccc(OC(=O)CN3C(=O)CCC3=O)cc21`, the AC50 [2] is reported as 35.5 µM [falling, single point] and the AC50 [1] is reported as 35.5 µM [falling, single point].

In the case of `CCn1cc(C(=O)OCC(=O)Nc2c(C)cccc2C)c(=O)c2ccc(C)nc21`, the AC50 [2] is reported as 0.0501 µM [rising, partial curve, poor fit] and the AC50 [1] is reported as 0.355 µM [rising, partial curve, poor fit].

For `COc1cccc(NC(=O)CCC(=O)Nc2cccc(OC)c2)c1`, the AC50 [2] was 6.31 µM [falling, single point].

With `COc1ccc(CN2C(=O)CC(Cc3cc(C)cc(C)c3)C2=O)cc1OC` (centres undefined) the AC50 [1] was 11.2 µM [rising, single point].

For `O=C(Nc1cccc(Cl)c1)Nc1nccs1`, the AC50 [1] was 31.6 µM [rising, single point].

In the case of `Cc1cc(C)cc(NC(=S)NCCSc2ccc(Cl)cc2)c1`, the AC50 [2] is reported as 35.5 µM [rising, single point] and the AC50 [1] is reported as 35.5 µM [rising, single point].

With `c1ccc(-c2onc3cc4c(cc23)OCCO4)cc1` the AC50 [2] was 17.8 µM [rising, single point] and the AC50 [1] was 31.6 µM [rising, single point].

For `CCCc1cc2c(cc1NC(=O)c1ccc(C(C)(C)C)cc1)OCO2`, the AC50 [1] was 10 µM [rising, partial curve, poor fit].

With `COc1cc(C(=O)O)c([N+](=O)[O-])c(OC)c1OC` the AC50 [2] was 4.47 µM [rising, partial curve].

With `Cc1ccc(CN(C)CC(=O)Nc2ccc3c(c2)CCC3)cc1` the AC50 [1] was 11.2 µM [rising, partial curve].

In the case of `CCc1ccc(NC(=O)N2CCC(N3CCN(Cc4ccc(C)cc4)C(=O)C3=O)CC2)cc1`, the AC50 [2] is reported as 0.2 µM [falling, full curve, poor fit] and the AC50 [1] is reported as 0.112 µM [falling, full curve, poor fit].

In the case of `CCNc1ncc2nc(-c3ccc(OC)cc3)c(=O)n(CCc3ccccc3)c2n1`, the AC50 [2] is reported as 22.4 µM [falling, single point] and the AC50 [1] is reported as 25.1 µM [falling, single point].

For `N#Cc1ccc(NC(=O)N2CCC(c3nc4c(nnn4Cc4cccc(Cl)c4)c(=O)[nH]3)CC2)cc1`, the AC50 [2] was 12.6 µM [rising, single point].

In the case of `CC(=O)OC1CC[C@]2(C)C(CC[C@@]3(C)C2C(=O)C=C2C4C(C)C(C)CC[C@@]4(C(=O)O)CCC23C)C1(C)C` (some centres undefined), the AC50 [2] is reported as 12.6 µM [rising, partial curve, poor fit].

For `CCC(NC(=O)c1ccccc1NC(=O)c1ccccc1)C(=O)NNC(=O)CSc1nc2ccccc2o1` (centres undefined), the AC50 [1] was 10 µM [rising, partial curve].

For `C=CCn1c(-c2ccccc2)nc(=S)c2c1CC(C)(C)OC2`, the AC50 [1] was 0.282 µM [falling, full curve, poor fit].

In the case of `COc1ccccc1NC(=S)N(Cc1ccccc1)Cc1ccccn1`, the AC50 [2] is reported as 12.6 µM [rising, partial curve, poor fit] and the AC50 [1] is reported as 14.1 µM [rising, partial curve, poor fit].

With `O=C(NCc1ccc(F)cc1)c1ccc2c(c1)nc1n2CCCCC1` the AC50 [2] was 0.316 µM [rising, partial curve, poor fit].

In the case of `O=C(C1CCCN(S(=O)(=O)c2ccccc2)C1)N1CCCCCC1` (centres undefined), the AC50 [2] is reported as 12.6 µM [rising, partial curve] and the AC50 [1] is reported as 31.6 µM [rising, partial curve].

For `Cc1ccc(C)c(NC(=O)c2cc(-c3ccccc3)nn2-c2ccccc2)c1`, the AC50 [2] was 17.8 µM [rising, single point] and the AC50 [1] was 35.5 µM [rising, single point].

For `CN(C)C(=O)c1ccc(-c2ccc3ncnc(Nc4ccc(F)cc4)c3c2)cc1`, the AC50 [2] was 11.2 µM [falling, partial curve] and the AC50 [1] was 15.8 µM [falling, partial curve, poor fit].

With `CCCS(=O)(=O)N1CCC(N2CCN(Cc3ccc(F)cc3)C(=O)C2=O)CC1` the AC50 [2] was 1.12 µM [rising, full curve] and the AC50 [1] was 1.12 µM [rising, full curve].

With `CCOC(=O)C1C(=O)C=C(c2cccc(NS(C)(=O)=O)c2)CC1c1ccco1` (centres undefined) the AC50 [1] was 12.6 µM [rising, single point].

In the case of `O=C(c1ccc2c(c1)OCO2)N1CCN=C1SCc1ccccc1`, the AC50 [1] is reported as 10 µM [rising, partial curve, poor fit].

For `O=C(O)CNS(=O)(=O)/C=C/c1ccccc1`, the AC50 [2] was 6.31 µM [falling, single point].

In the case of `CCOc1ccc(C2C(=O)N(C3CCCCC3)CC(=O)N2CCC2=CCCCC2)cc1OC` (centres undefined), the AC50 [2] is reported as 31.6 µM [rising, partial curve, poor fit] and the AC50 [1] is reported as 12.6 µM [rising, partial curve, poor fit].

In the case of `Cc1ccc2c(c1)cc(CN(C(=O)N1CCOCC1)C1CCCC1)c1nnnn12`, the AC50 [2] is reported as 0.0501 µM [falling, full curve, poor fit] and the AC50 [1] is reported as 0.0794 µM [falling, full curve, poor fit].

In the case of `CC(=O)Nc1ccc(S(=O)(=O)Nc2cccc(-c3ccc(N4CCCCCC4)nn3)c2)cc1`, the AC50 [2] is reported as 0.00891 µM [falling, full curve, poor fit] and the AC50 [1] is reported as 0.00794 µM [falling, full curve, poor fit].

In the case of `CCOc1ccc(-c2cnc(SCC(N)=O)nc2N)cc1`, the AC50 [2] is reported as 35.5 µM [rising, single point].

For `Cn1cc(CN2CCCC(CO)(Cc3cccc(Cl)c3)C2)cn1` (centres undefined), the AC50 [1] was 0.0282 µM [falling, full curve, poor fit].

For `CCN(C(=O)CSc1nc2ccccc2c(=O)n1-c1cccc(C)c1)C1CCS(=O)(=O)C1` (centres undefined), the AC50 [1] was 4.47 µM [rising, partial curve].

In the case of `COc1cccc2c1C(=O)c1c(O)c3c(c(O)c1C2=O)C[C@@](O)(C(C)=O)C[C@@H]3O[C@H]1C[C@H](N)[C@H](O)[C@H](C)O1`, the AC50 [2] is reported as 3.55 µM [falling, partial curve] and 5.62 µM [falling, full curve].

In the case of `O=C(NCC1CCCO1)c1ccc2c(=O)n(CC3CCCO3)c(SCC(=O)N3CCCC3)nc2c1` (centres undefined), the AC50 [1] is reported as 1.26 µM [rising, single point].

In the case of `O=C(Cn1cnc2c(cnn2-c2ccccc2)c1=O)Nc1ccc(S(=O)(=O)N2CCOCC2)cc1`, the AC50 [1] is reported as 14.1 µM [rising, single point].

With `O=C(Oc1cccc(-n2cnnn2)c1)c1sc2ccccc2c1Cl` the AC50 [1] was 5.62 µM [rising, single point].

For `S=C(Nc1ccc(Oc2ccccc2)cc1)N1CCN(c2ccccn2)CC1`, the AC50 [1] was 0.2 µM [rising, full curve, poor fit].

In the case of `CC(C)CC(COCc1ccc(Cl)cc1)N1CCN(C(=O)c2cccc(C(F)(F)F)c2)CCC1=O` (centres undefined), the AC50 [2] is reported as 35.5 µM [rising, single point] and the AC50 [1] is reported as 25.1 µM [rising, single point].

In the case of `O=C(NCc1cccs1)C1CCN(c2ccc(S(=O)(=O)N3CCOCC3)cc2Cl)CC1`, the AC50 [2] is reported as 8.91 µM [rising, partial curve] and the AC50 [1] is reported as 7.94 µM [rising, partial curve].

For `CCN(CC)S(=O)(=O)c1ccc(N2CCOCC2)c(NC(=O)Cc2ccc(Cl)cc2)c1`, the AC50 [1] was 15.8 µM [rising, single point].

With `O=C(NCc1ccco1)c1nn2c(C(F)(F)F)cc(-c3cccs3)nc2c1Br` the AC50 [2] was 31.6 µM [rising, single point].

With `C=CCn1c(SCC(=O)Nc2ccc3c(c2)OCO3)nnc1-c1ccccc1OC` the AC50 [1] was 11.2 µM [rising, single point].

In the case of `CCc1nc(N2CCC(C)CC2)c2oc3ccccc3c2n1`, the AC50 [1] is reported as 35.5 µM [rising, single point].

In the case of `COc1ccc(-c2cc3nc(C)cc(N4CC(C)CC(C)C4)n3n2)cc1` (centres undefined), the AC50 [1] is reported as 35.5 µM [rising, single point].

In the case of `Cc1ccc(Cn2nnc3c(=O)n(CC(=O)NCc4ccc5c(c4)OCO5)cnc32)cc1`, the AC50 [1] is reported as 35.5 µM [rising, single point].

For `Clc1ccc(-c2csc(-c3ccncc3)n2)cc1`, the AC50 [1] was 0.01 µM [falling, full curve, poor fit].

With `COC(=O)c1ccc(COc2ccccc2/C=C(\C#N)C(=O)Nc2c(C)cc(C)cc2C)cc1` the AC50 [2] was 3.98 µM [falling, partial curve, poor fit] and the AC50 [1] was 20 µM [falling, single point].

In the case of `CCNc1ncc2nc(-c3ccccc3)c(=O)n(Cc3cccs3)c2n1`, the AC50 [2] is reported as 5.01 µM [falling, partial curve] and the AC50 [1] is reported as 11.2 µM [falling, partial curve].

For `COc1ccc(C(C)=O)cc1CSc1nnc(Nc2ccccc2C)s1`, the AC50 [2] was 11.2 µM [rising, partial curve] and the AC50 [1] was 25.1 µM [rising, partial curve].

In the case of `COc1ccc(-c2cc(C(F)(F)F)nc(SCC(=O)NCc3cccs3)n2)cc1OC`, the AC50 [2] is reported as 11.2 µM [rising, partial curve, poor fit] and the AC50 [1] is reported as 12.6 µM [rising, single point].
